# Reference: publication PMC3326058
# B1: Flag-tagged JMJD2D (enzyme, UniProt Q6B0I6 1-523)
# chain: METMKSKANCAQNPNCNIMIFHPTKEEFNDFDKYIAYMESQGAHRAGLAKIIPPKEWKARETYDNISEILIATPLQQVASGRAGVFTQYHKKKKAMTVGEYRHLANSKKYQTPPHQNFEDLERKYWKNRIYNSPIYGADISGSLFDENTKQWNLGHLGTIQDLLEKECGVVIEGVNTPYLYFGMWKTTFAWHTEDMDLYSINYLHLGEPKTWYVVPPEHGQRLERLARELFPGSSRGCGAFLRHKVALISPTVLKENGIPFNRITQEAGEFMVTFPYGYHAGFNHGFNCAEAINFATPRWIDYGKMASQCSCGEARVTFSMDAFVRILQPERYDLWKRGQDRAVVDHMEPRVPASQELSTQKEVQLPRRAALGLRQLPSHWARHSPWPMAARSGTRCHTLVCSSLPRRSAVSGTATQPRAAAVHSSKKPSSTPSSTPGPSAQIIHPSNGRRGRGRPPQKLRAQELTLQTPAKRPLLAGTTCTASGPEPEPLPEDGALMDKPVPLSPGLQHPVKASGCSWAPVP
# How the values were obtained:
# Experiment in all cases: pull-down; GST fusion proteins bound to glutathione agarose beads, incubated with HEK293T cell extract containing Flag-JMJD2D in 20 mM HEPES, 50 mM NaCl, 1 mM DTT, 0.01% Tween-20 for 3 h at 4°C; three washes; anti-Flag (M2) Western blot; only the target purified
# [1] = molecular target: GST-p53 central DNA binding domain (human)
# [2] = molecular target: GST-p53 C-terminus (human)
# [3] = molecular target: GST-p53 N-terminus (human)
binder,measurement,setting,value
B1,binding,[1],binds
same,binding,[2],no binding
same,binding,[3],no binding

# Results are given in words; binding and its absence hold for the method and conditions named. In cells and extracts the contact can be indirect. For part of these data: A result given as binding can be weak or reduced; the word gives no strength. Where a sequence is shown, tags or fusion partners need not be part of it.
